Data as given in PubChem BioAssay AID686937 (Drosophila RNAi Screening Center, 2013).
In all, the deposit lists about 23,000 reagents; this is a random part of those that have a named target and a result. 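Reduced-secretion tags in replicate 1 do not always agree with the z-scores; no criterion for assigning the tags was given.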 The numbers tell different reagents against one gene apart. Not all columns of the deposit are shown. Reagent sequences are not shown. The record does not give: the amount of reagent.

Aim: 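Knock-downs that reduce output of a secreted reporter enzyme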 (primary screen)
System: Drosophila S2 cells expressing secreted horseradish peroxidase
Reagent: long dsRNA against Drosophila genes
Time to read-out: about 5.5 days (5 days dsRNA, then 12 h reporter induction)
Challenge: reporter expression induced after 5 days of dsRNA, read 12 h later; inducer not stated
Measurement: 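Chemiluminescent measurement of peroxidase in the medium 12 h after reporter induction, following 5 days of dsRNA, given as a z-score per plate; higher means more secretion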
Reading the numbers: z-score: higher = more reporter secreted into medium

predicted target	reagent no.	z-score, replicate 1
CG11920	1	0.12
CG11180	1	0.28
CG8584	1	0.21
CG10265	1	0.22
CG10265	2	0.17
Coq5 (Coenzyme Q5)	1	-3.14
Coq5 (Coenzyme Q5)	2	1.91
SIDL (Shal Interactor of Di-Leucine Motif)	1	0.31
CG31098	1	0
inaC (inactivation no afterpotential C)	1	0.4
Ugt35E2 (UDP-glycosyltransferase family 35 member E2)	1	0.54
CG10646	1	0.62
Obp50d (Odorant-binding protein 50d)	1	-0.15
CG9008	1	0.35
CG14591	1	0.35
Hsp70Bc (Heat shock protein 70 Bc)	1	-0.63
ear (ENL/AF9-related)	1	-0.85
ndl (nudel)	1	0.32
bib (big brain)	1	0.31
CG42810	1	0.22
CG31055	1	0.3
sut3 (sugar transporter 3)	1	-6.9
CG10222	1	0.02
Map205 (Microtubule-associated protein 205)	1	0.05
CG32700	1	0.19
CG32700	2	0.3
CG31705	1	-2.57
CG7872	1	0.47
CG5707	1	0.22
CG13137	1	0.22
CG3597	1	0.23
CG31661	1	0.41
Mkk4 (MAP kinase kinase 4)	1	0.27
CG11345	1	0.33
Vps60 (Vacuolar protein sorting 60)	1	0.22
Srg3 (Sting-regulated gene 3)	1	0.51
Srg3 (Sting-regulated gene 3)	2	0.6
Acyp (Acylphosphatase)	1	0.67
TwdlU (TweedleU)	1	0.29
CG12825	1	0.39
CG13972	1	0.58
Prosbeta5 (Proteasome beta5 subunit)	1	-4.54
Ziz (Zizimin)	1	0.16
Ziz (Zizimin)	2	0.13
Nxt1 (NTF2-related export protein 1)	1	-1.08
salt (salty dog)	1	-0.17
L2HGDH (L-2-hydroxyglutarate dehydrogenase)	1	0.56
B52	1	0.41
Cpr76Bb (Cuticular protein 76Bb)	1	0.28
Cpr76Bb (Cuticular protein 76Bb)	2	0.96
CG31195	1	0.14
Acyp2 (Acylphosphatase 2)	1	-0.05
CG10352	1	0.15
bam (bag of marbles)	1	0.4
CG33258	1	0.01
Rpn1 (Regulatory particle non-ATPase 1)	1	-4.5
jar (jaguar)	1	0.26
CG9003	1	0.55
Ugalt (UDP-galactose transporter)	1	0.26
CG10116	1	0.47
CG32249	1	0.49
CG32249	2	0.42
CG32249	3	-0.34
CG30486	1	0.33
CG30289	1	-0.26
Pmm2 (Phosphomannomutase type 2)	1	-0.11
CG14805	1	0.04
CG11362	1	0.19
CG11362	2	0.33
Nipsnap	1	0.3
Rgl (Ral guanine nucleotide dissociation stimulator-like)	1	0.28
CG15362	1	0.29
HDAC11 (Histone deacetylase 11)	1	0.31
Ns1 (Nucleostemin 1)	1	-0.58
CG15747	1	-0.34
CG31787	1	-0.36
cav (caravaggio)	1	0.3
CG42397	1	0.5
Pym (Partner of Y14 and Mago)	1	-4.98
WDR79 (WD repeat domain 79)	1	0.49
nan (nanchung)	1	0.21
GstE3 (Glutathione S transferase E3)	1	0.26
Cpr47Eg (Cuticular protein 47Eg)	1	0.1
CG43095	1	-0.03
CG7829	1	0.05
strat (stratum)	1	0.42
Gnf1 (Germ line transcription factor 1)	1	-0.69
CG34460	1	-0.15
Spp (Signal peptide peptidase)	1	0.34
CG4270	1	0.17
CG34224	1	-0.19
CG15293	1	-0.06
CG43308	1	0.37
CG11679	1	0.33
NaPi-III (Na[+]-dependent inorganic phosphate cotransporter type III)	1	0.51
NaPi-III (Na[+]-dependent inorganic phosphate cotransporter type III)	2	-0.48
NaPi-III (Na[+]-dependent inorganic phosphate cotransporter type III)	3	-0.61
AsnS (Asparagine synthetase)	1	-0.16
mRpL55 (mitochondrial ribosomal protein L55)	1	0.37
ssp3 (short spindle 3)	1	1.65
ssp3 (short spindle 3)	2	0.47
CG42663	1	0.36
CG42663	2	0.16
Cp190 (Centrosomal protein 190kD)	1	-0.86

Quoted from above, 12 entries:
predicted target	reagent no.	z-score, replicate 1
Cpr47Eg (Cuticular protein 47Eg)	1	0.1
CG43095	1	-0.03
CG7829	1	0.05
strat (stratum)	1	0.42
Gnf1 (Germ line transcription factor 1)	1	-0.69
CG34460	1	-0.15
Spp (Signal peptide peptidase)	1	0.34
CG4270	1	0.17
CG34224	1	-0.19
CG15293	1	-0.06
CG43308	1	0.37
CG11679	1	0.33
